The results in this text go back to publication PMC9468603.

These are yes or no findings as the source states them, for the method shown. Binding seen in cells or lysates may run through a third protein. Binding calls can cover weak binding; strength is not graded here.

In the test the target is His-tagged Shp2 N-SH2 domain recombinant protein (UniProt Q06124). In words: pull-down; FA fractions of MEFs incubated with or without 400 U λPPase for 30 min before pull-down with His-N-SH2 and Ni-beads; α-actinin-4 detected by Western blotting; only the target purified. In general terms: A western blot detects proteins with antibodies after separation by electrophoresis.

In the case of “α-actinin-4 (endogenous, mouse) (from UniProt P57780 1-912)”, the binding result is reported as “binds”.
